# Assay results from patent publication US12653865B2, “Dual-agonist compound for both GLP-1 and GIP receptors and application thereof” (Jiangsu Hengrui Pharmaceuticals Co., Ltd., priority 2020, dated 2026).
# By UniProt entry, the sequences of proteins in these tests, tags left out. Residues count along the entry.
# UniProt P43220, 24-463: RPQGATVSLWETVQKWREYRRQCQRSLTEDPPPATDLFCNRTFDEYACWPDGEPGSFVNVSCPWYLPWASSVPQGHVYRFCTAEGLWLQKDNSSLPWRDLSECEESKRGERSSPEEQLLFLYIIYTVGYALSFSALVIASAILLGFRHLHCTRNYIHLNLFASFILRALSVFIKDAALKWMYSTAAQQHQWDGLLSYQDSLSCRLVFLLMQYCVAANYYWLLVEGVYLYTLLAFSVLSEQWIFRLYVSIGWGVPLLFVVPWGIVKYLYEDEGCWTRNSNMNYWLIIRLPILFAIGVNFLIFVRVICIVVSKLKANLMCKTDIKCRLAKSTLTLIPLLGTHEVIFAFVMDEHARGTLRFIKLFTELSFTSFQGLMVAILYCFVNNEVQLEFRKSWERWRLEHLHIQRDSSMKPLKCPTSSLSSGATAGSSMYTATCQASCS
# Values joined by “and” are separate entries in the source; they are usually repeats but may differ in a detail not shown here. Equal entries are not always repeated. Part of at least one peptide drawing is inferred or uncertain, most often the ends.
# Tests used:
# [1] = target: human GLP-1R (Homo sapiens, UniProt P43220); experiment: Agonist activity against GLP-1R (cAMP HTRF, CHO-K1/GLP-1R/CRE-luc cells); assay type: cell-based; conditions: comparison of agonist activity at both receptors
# [2] = tested on: normal mice; experiment: Blood glucose in normal mice after single subcutaneous injection and intraperitoneal glucose; assay type: in vivo, C57BL/6 mice; conditions: 10 nmol/kg sc, glucose ip 18 h later
# Description: 18 h later, a glucose solution at a concentration of 0.2 g/mL was intraperitoneally injected. Blood glucose values were measured by collecting blood from the tail of mice at time points of 0 min, 15 min, 30 min, 60 min, and 120 min according to the experimental design. The specific procedures were as follows: the mouse was physically immobilized with the tail exposed, and a little was cut off the tail, then the tail was squeezed to bleed, and blood glucose was determined using a Roche active glucometer after the 1 st drop of blood was discarded. The area under the blood glucose curve (AUC) was calculated from the results of all points.
# [3] = tested on: diet-induced obese mice; experiment: Body weight and fat mass in diet-induced obese mice; assay type: in vivo, C57BL/6 mice; conditions: high-fat food-induced obese mice, 10 nmol/kg, day 27, text
# Description: High-fat food-induced obese male C57BL/6 mice (weighing 35-55 g, aged 10-12 weeks, purchased from Shanghai Jiesijie Laboratory Animal Co., Ltd.) were tested. […] According to the experimental design, the body weight of each mouse was measured and recorded on day 0, day 3, day 6 and so on to day 27, the average body weight of each group of mice was calculated, and weight change curves were plotted by taking the body weight on the first day as the standard. At the end, the fat and other visceral organs of each part of the mice were taken out and weighed, and the viscera/brain ratio for fat in each part of each mouse was calculated. The effect of the drug on the fat was determined by comparing the change in the organ/brain ratio for fat of different parts of each group of mice.
# [4] = tested on: db/db mice; experiment: Glucose metabolism level in db/db mice; assay type: in vivo, C57BL/KsJ-db/db mice; conditions: 100 nmol/kg sc
# Description: Each administration group contained 10 db/db mice. According to the experimental design, tail vein blood was collected by needle pricking on days 0, 7, 14, 21 and 28 and determined for fasting blood glucose levels with a glucometer and glucose dipsticks, and the mice were fasted 6 h prior to the blood collection at each time point. Tail vein blood was collected by needle pricking on days 3, 10, 17, 24 and 27 and randomly determined for blood glucose levels with a glucometer. Finally, at the end of the experiment on day 28, all the animals in the administration groups were subjected to 2-5% isoflurane inhalation anesthesia, and 100 μL of EDTA-K2 anticoagulated whole blood was collected through the orbit of each mouse and used for the determination of glycated hemoglobin.
compound,measurement,setting,value
"CC[C@H](C)[C@H](NC(=O)[C@H](CC(C)C)NC(=O)[C@H](Cc1c[nH]c2ccccc12)NC(=O)[C@H](CCC(N)=O)NC(=O)[C@@H](NC(=O)[C@H](Cc1ccccc1)NC(=O)[C@H](C)NC(=O)[C@H](CCCCNC(=O)COCCOCCNC(=O)COCCOCCNC(=O)CC[C@H](NC(=O)CCCCCCCCCCCCCCCCCCC(=O)O)C(=O)O)NC(=O)[C@H](CCC(N)=O)NC(=O)[C@H](C)NC(=O)[C@@H](NC(=O)[C@H](CCCCN)NC(=O)[C@H](CC(=O)O)NC(=O)[C@H](CC(C)C)NC(=O)C(C)(C)NC(=O)[C@@H](NC(=O)[C@H](CO)NC(=O)[C@H](Cc1ccc(O)cc1)NC(=O)[C@H](CC(=O)O)NC(=O)[C@H](CO)NC(=O)[C@@H](NC(=O)[C@H](Cc1ccccc1)NC(=O)[C@@H](NC(=O)CNC(=O)[C@H](CCC(=O)O)NC(=O)C(C)(C)NC(=O)[C@@H](N)Cc1ccc(O)cc1)[C@@H](C)O)[C@@H](C)O)[C@@H](C)CC)[C@@H](C)CC)C(C)C)C(=O)N[C@@H](C)C(=O)NCC(=O)NCC(=O)N1CCC[C@H]1C(=O)N[C@@H](CO)C(=O)N[C@@H](CO)C(=O)NCC(=O)N[C@@H](C)C(=O)N1CCC[C@H]1C(=O)N1CCC[C@H]1C(=O)N1CCC[C@H]1C(=O)N[C@@H](CO)C(N)=O [LY3298176, reference compound]","preferential activity, GLP-1R versus GIP receptor",[1],preferential activity against the GIP receptor
same,Blood glucose,[2]; 0 min,3.2 ± 0.2 mmol/L
same,Blood glucose,[2]; 15 min,9.1 ± 1.3 mmol/L
same,Blood glucose,[2]; 30 min,8 ± 1.4 mmol/L
same,Blood glucose,[2]; 60 min,6.4 ± 1.0 mmol/L
same,Blood glucose,[2]; 120 min,4.5 ± 0.7 mmol/L
same,body weight reduced by,[3],about 13.4%
same,Concentration of fasting blood glucose,[4]; Day 0,14.35 ± 1.41 mmol/L
same,Concentration of random blood glucose,[4]; Day 0,18.60 ± 1.52 mmol/L
same,Concentration of fasting blood glucose,[4]; Day 7,7.44 ± 0.76 mmol/L
same,Concentration of random blood glucose,[4]; Day 10,17.10 ± 1.96 mmol/L
same,Concentration of fasting blood glucose,[4]; Day 14,7.56 ± 0.88 mmol/L
same,Concentration of random blood glucose,[4]; Day 17,17.98 ± 1.37 mmol/L
same,Concentration of fasting blood glucose,[4]; Day 21,9.42 ± 1.67 mmol/L
same,Concentration of random blood glucose,[4]; Day 24,20.70 ± 1.27 mmol/L
same,Concentration of fasting blood glucose,[4]; Day 28,9.89 ± 1.28 mmol/L
same,Glycated hemoglobin,[4]; day 28,4.58% and 4.58 ± 0.23 %
